Results from article PMC2954837.
For at least one entry, the source does not settle the construct or the ends of the probe. Results from cells or extracts need not show a direct contact.

Protein sequences, listed by entry. Tags and fused reporters are not part of them. Lines headed by an entry give the natural chain unless they say otherwise; changes in a name come on top.
UniProt P47930: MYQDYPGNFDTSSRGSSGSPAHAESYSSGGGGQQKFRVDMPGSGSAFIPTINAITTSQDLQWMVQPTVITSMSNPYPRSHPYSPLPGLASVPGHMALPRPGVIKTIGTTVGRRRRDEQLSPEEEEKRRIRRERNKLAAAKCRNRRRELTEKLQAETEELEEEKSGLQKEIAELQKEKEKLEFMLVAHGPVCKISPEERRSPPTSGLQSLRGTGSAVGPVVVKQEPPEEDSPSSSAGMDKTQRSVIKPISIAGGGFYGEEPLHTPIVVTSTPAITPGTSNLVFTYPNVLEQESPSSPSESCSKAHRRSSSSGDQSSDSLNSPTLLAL
UniProt P09450: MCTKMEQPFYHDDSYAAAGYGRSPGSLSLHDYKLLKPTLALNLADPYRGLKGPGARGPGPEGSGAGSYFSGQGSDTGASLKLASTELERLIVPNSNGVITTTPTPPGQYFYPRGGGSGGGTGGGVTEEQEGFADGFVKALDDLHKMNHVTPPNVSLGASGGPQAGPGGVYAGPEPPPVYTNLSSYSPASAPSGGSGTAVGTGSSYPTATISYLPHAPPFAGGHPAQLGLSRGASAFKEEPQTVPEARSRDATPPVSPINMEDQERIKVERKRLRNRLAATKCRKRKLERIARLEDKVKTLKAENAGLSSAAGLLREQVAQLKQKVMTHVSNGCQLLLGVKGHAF
UniProt P48755: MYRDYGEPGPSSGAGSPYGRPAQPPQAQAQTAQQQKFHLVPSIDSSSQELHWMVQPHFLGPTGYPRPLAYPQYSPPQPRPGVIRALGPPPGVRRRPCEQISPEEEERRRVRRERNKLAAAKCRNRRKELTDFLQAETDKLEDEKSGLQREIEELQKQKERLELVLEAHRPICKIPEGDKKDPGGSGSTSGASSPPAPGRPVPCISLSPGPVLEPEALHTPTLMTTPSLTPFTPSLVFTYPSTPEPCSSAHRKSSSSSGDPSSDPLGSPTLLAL
UniProt P15066: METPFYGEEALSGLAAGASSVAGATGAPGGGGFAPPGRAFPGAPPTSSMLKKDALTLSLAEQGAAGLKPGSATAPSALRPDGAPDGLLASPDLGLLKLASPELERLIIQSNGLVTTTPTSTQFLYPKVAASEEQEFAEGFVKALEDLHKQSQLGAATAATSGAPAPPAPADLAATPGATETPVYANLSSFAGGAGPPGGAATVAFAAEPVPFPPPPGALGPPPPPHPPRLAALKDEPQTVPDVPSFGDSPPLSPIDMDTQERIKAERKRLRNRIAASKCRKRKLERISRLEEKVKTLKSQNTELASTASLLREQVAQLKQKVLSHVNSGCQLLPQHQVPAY
UniProt P05627, whole entry: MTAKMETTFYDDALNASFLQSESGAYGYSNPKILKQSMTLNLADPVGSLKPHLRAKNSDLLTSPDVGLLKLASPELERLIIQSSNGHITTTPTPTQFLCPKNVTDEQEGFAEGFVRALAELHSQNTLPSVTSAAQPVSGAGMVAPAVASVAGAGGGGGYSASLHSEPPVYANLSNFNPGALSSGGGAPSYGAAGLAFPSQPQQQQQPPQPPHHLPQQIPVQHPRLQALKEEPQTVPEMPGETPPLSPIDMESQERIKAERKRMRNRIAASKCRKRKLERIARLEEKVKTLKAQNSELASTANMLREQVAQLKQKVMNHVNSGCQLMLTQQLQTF

Experiments:
Test in all cases: EMSA supershift
Conditions in all cases: uninfected macrophage nuclear extract, poly(dI-dC); 8% glycerol, 1% Ficoll, 25 mM KCl, 25 mM NaCl, 1 mM DTT, 0.5 mM EDTA, 1 ug/ul BSA, 200 ng/ul poly(dI-dC); protein in an extract; label: 32P
[1] = molecular target: Fra-2 (mouse (murine B10R macrophages)) (UniProt P47930)
[2] = molecular target: Jun B (mouse (murine B10R macrophages)) (UniProt P09450)
[3] = molecular target: Fra-1 (mouse (murine B10R macrophages)) (UniProt P48755)
[4] = molecular target: Jun D (mouse (murine B10R macrophages)) (UniProt P15066)
[5] = molecular target: c-Jun (mouse (murine B10R macrophages)) (UniProt P05627)

Measured: binding result

CGTTTGATGACTCAGCCGGAA (double strand) [AP-1 consensus oligonucleotide]
binds: [1] | [2] | [3] | [4] | [5]
